Measured values published in PubChem BioAssay AID540276 (National Center for Advancing Translational Sciences (NCATS), 2011).
The whole screen tested about 300,000 compounds, of which about 5,400 (1.8%) were called active. This list was built around the results that the source calls inconclusive (neither active nor inactive); the mix of calls is not that of the screen. Calls follow the shape of the full dose curve; tested in HEK293 cells. Potencies beside an inconclusive call are fits to weak or partial responses and may not hold up.

Assay: qHTS for inhibitors of binding or entry into cells for Marburg Virus
Conditions: Marburg virus pseudotyped entry inhibition, cell reporter; activity change, negative = inhibition: at 37.8 µM (top of the series) unless noted
% is scaled to controls: 0 for no effect and ±100 for the full control effect; potency is read from the fitted curve at half-maximal effect.

SMILES | Potency | activity change, negative = inhibition
CCOC(=O)c1sc(NC(=O)CCN2CCCCCC2)c(C(=O)OCC)c1C | inconclusive: 5.62 µM [activator, single point] | –
Cc1cc(C(=O)NCCc2ccc(S(N)(=O)=O)cc2)c(C)o1 | inactive | –
Cc1ccc(CNC(=O)CN2C(=O)C3(OCCCO3)c3ccccc32)cc1 | inactive | –
CN1CCN(C(=O)c2ccccc2NC(=O)c2cccs2)CC1 | inconclusive: 2.51 µM [activator, single point] | –
COC(=O)c1ccc(C(NC(=O)c2cccnc2)NC(=O)c2cccnc2)cc1 | inactive | –
O=C(NCc1nc2ccccc2n1Cc1ccccc1Cl)c1ccccc1 | inconclusive: 12.6 µM [inhibitor, single point] | –
O=C(N/N=C/c1ccc(N2CCOCC2)c([N+](=O)[O-])c1)c1ccc(F)cc1 | inconclusive: 8.2 µM [inhibitor, partial curve] | –
CN(C)C1=NP(N(C)C)(N(C)C)=NC(c2ccccc2)=N1 | inconclusive: 0.562 µM [inhibitor, full curve, poor fit] | –
O=S(=O)(Nc1nccs1)c1cnc(Cl)c(Br)c1 | inactive | –
CCOC(=O)c1ccc(NC(=O)CN(Cc2ccc(Cl)cc2)S(C)(=O)=O)cc1 | inactive | –
COc1cccc(NC(=O)CSc2ccc(-c3sc(C)nc3C)nn2)c1 | inconclusive: 7.08 µM [inhibitor, partial curve] | –
COc1ccc(-n2nc(C(=O)NCC(=O)NC3CCCC(C)C3C)c3ccccc3c2=O)cc1 (centres undefined) | inconclusive: 35.5 µM [inhibitor, single point] | –
COCC(C)n1c(SCc2nc(N)nc(Nc3ccccc3C)n2)nc2ccccc2c1=O (centres undefined) | inconclusive: 20 µM [inhibitor, single point] | –
COc1ccccc1N1CCN(S(=O)(=O)c2cn(C)nc2C)CC1 | – | inconclusive: 7.9% [activator]
CCCCn1c(N)c(N(CCOC)C(=O)COC(=O)c2cc(CCC)c(C)s2)c(=O)[nH]c1=O | inconclusive: 0.1 µM [inhibitor, full curve, poor fit] | –
CCOC(=O)c1cc2c(N)c(C(=O)c3cc(C#N)c(SC)nc3C)sc2nc1C | inconclusive: 1.83 µM [inhibitor, full curve] | –
COc1ccc(OCC(=O)Nc2ccc(Cl)c(-c3nc4ncccc4o3)c2)cc1 | inconclusive: 35.5 µM [activator, single point] | –
O=C1CN(C(=O)COc2ccccc2)C(c2ccc(F)cc2)c2cc(Br)ccc2N1 (centres undefined) | inconclusive: 7.94 µM [inhibitor, partial curve] | –
COc1ccc(-c2nn(-c3ccc(F)cc3)c3c2cnc2ccc(F)cc23)cc1OC | inactive | –
CCN1C(=O)c2ccc(C(=O)NCc3ccc4c(c3)OCO4)cc2C1=O | inconclusive: 18.3 µM [activator, single point] | –
O=C(CCc1ccccc1)Nc1ncn[nH]1 | inconclusive: 31.6 µM [activator, single point] | –
Oc1ccc2ccccc2c1C=NCc1cn2ccsc2n1 | inactive | –
Cc1cc(Br)cc2c(C(=O)NCC3CCCO3)cc(-c3cccs3)nc12 (centres undefined) | inactive | –

SMILES | Potency | activity change, negative = inhibition
Cc1cc(/C=N\NC(=O)CC(=O)NC2CCCCC2)c(C)n1-c1ccc(Cl)cc1 | inactive | –
O=C(Cc1ccccc1)NC1CCN(Cc2ccccc2)CC1 | inactive | –
COc1ccc(COC(=O)C2=C(C)NC(=O)NC2c2ccccc2)cc1 (centres undefined) | inactive | –
Cc1c(NC(=O)CSc2nnc(C(C)N(C)C)n2-c2ccccc2)c(=O)n(-c2ccccc2)n1C (centres undefined) | inconclusive: 31.6 µM [activator, single point] | –
COc1ccc(N=CC2=C(O)CCCC2=O)cc1 | inactive | –
COc1cccc(N2CCN(C(=O)c3c(C)nn(-c4ccccc4)c3C)CC2)c1 | inconclusive: 0.562 µM [inhibitor, full curve, poor fit] | –
CCS(=O)(=O)c1c([N+](=O)[O-])ncn1C | inactive | –
COc1ccc2c(c1)c(=O)c(Br)c(C)n2Cc1ccccc1 | inconclusive: 28.2 µM [inhibitor, single point] | –
O=C(Nc1cccc(C(F)(F)F)c1)N1CCC(c2nc(-c3ccc(F)cc3)no2)CC1 | inconclusive: 11.6 µM [inhibitor, partial curve] | –
Cc1cc(C)c(NC(=O)c2cn3c4c(c(N5CCN(C)CC5)c(F)cc4c2=O)OCC3C)c(C)c1 (centres undefined) | inconclusive: 3.98 µM [inhibitor, full curve, poor fit] | –
O=C(c1ccccc1)N1N=C(c2ccc(F)cc2)CC1c1ccc(F)cc1 (centres undefined) | inconclusive: 35.5 µM [inhibitor, single point] | –
Cc1ccc(NC(=O)N2C(=O)C3(OCCO3)c3ccccc32)cc1 | inconclusive: 1.41 µM [activator, full curve, poor fit] | –
CCCCCNc1nc(N2CCCC2)c2c(c1C#N)CCN(C)C2 | inconclusive: 11.2 µM [inhibitor, partial curve, poor fit] | –
Cc1cc2c3c([nH]c2cc1S(=O)(=O)NCc1ccc(CN2CCCCCC2)o1)CC(C)(C)CC3=O | inconclusive: 10 µM [inhibitor, partial curve, poor fit] | –
COc1cccc(N2C(=O)Nc3ccc(Br)cc3C2(O)C(=O)NCCCOC(C)C)c1 (centres undefined) | inconclusive: 2.51 µM [inhibitor, partial curve, poor fit] | –
COc1ccccc1OCc1ccc(C(=O)Nc2ccc(Cl)cn2)o1 | inconclusive: 6.31 µM [activator, single point] | –
N=c1c2c3c(sc2nc2n1CCCCC2)CCCCC3 | inconclusive: 5.01 µM [activator, single point] | –
O=C(NCC1CCN(c2ccc(S(=O)(=O)N3CCOCC3)cc2)CC1)c1ccc(Cl)cc1 | inconclusive: 7.08 µM [inhibitor, partial curve, poor fit] | –
CCOc1ccc(S(=O)(=O)N2CCN(C(=O)c3ccco3)CC2)cc1 | inconclusive: 1.12 µM [activator, partial curve, poor fit] | –
CC1=CC[C@@H](COc2ccccc2)O[C@@]2(C1)C(=O)N(Cc1ccc(F)cc1)c1ccccc12 | inactive | –
O=C1NC(=O)C(=Cc2ccccc2OCCOc2ccc([N+](=O)[O-])cc2)C(=O)N1 | inconclusive: 10 µM [inhibitor, partial curve, poor fit] | –
Cc1ccccc1OCc1nc2c3cnn(-c4ccccc4F)c3ncn2n1 | inconclusive: 17.8 µM [activator, single point] | –
COc1ccc2[nH]c(=O)c(CN(C(C)=O)C3CCCCC3)cc2c1 | inactive | –

Random excerpt: 4 compounds from above.
SMILES | Potency | activity change, negative = inhibition
Cc1cc(/C=N\NC(=O)CC(=O)NC2CCCCC2)c(C)n1-c1ccc(Cl)cc1 | inactive | –
COc1ccc(COC(=O)C2=C(C)NC(=O)NC2c2ccccc2)cc1 (centres undefined) | inactive | –
COc1ccccc1N1CCN(S(=O)(=O)c2cn(C)nc2C)CC1 | – | inconclusive: 7.9% [activator]
CCCCn1c(N)c(N(CCOC)C(=O)COC(=O)c2cc(CCC)c(C)s2)c(=O)[nH]c1=O | inconclusive: 0.1 µM [inhibitor, full curve, poor fit] | –

Later entries:

SMILES | Potency | activity change, negative = inhibition
Cc1cccc(C(=O)Nc2ccn(C)n2)c1 | inconclusive: 5.62 µM [activator, single point] | –
COc1ccc(NC(=O)c2sc3nc4c(cc3c2N)CCCCCC4)cc1 | inconclusive: 35.5 µM [inhibitor, single point] | –
Cc1ccc(Cl)cc1Nc1nc(-c2sc(NC(=O)c3ccccc3)nc2C)cs1 | inactive | –
COc1ccc(C(=O)OCC(=O)NCCN2C(=O)CSC2=O)cc1 | inactive | –
Cc1cc(-c2nc3ccccc3s2)ccc1N | inconclusive: 2.24 µM [inhibitor, full curve, poor fit] | –
Cc1nn(-c2ccc(F)cc2)c(Cl)c1/C=C/C(=O)OCC(=O)Nc1c(F)c(F)c(F)c(F)c1F | inactive | –
COc1cccc(OCCSc2nc3ccccc3c(=O)[nH]2)c1 | inconclusive: 5.62 µM [inhibitor, single point] | –
C/C(CCC(=O)OC[C@H]1O[C@H](C#Cc2ccccc2)C=C[C@@H]1Oc1ccc(C)cc1)=N\OC[C@@H](O)COCc1ccco1 | inactive | –
CCOC(=O)c1ccc(CNC(=O)CSc2nnc(-c3ccncc3)o2)cc1 | inconclusive: 2.82 µM [inhibitor, partial curve, poor fit] | –
Cc1ccc(O)c(/C=N/NC(=O)c2[nH]ncc2Br)c1 | inconclusive: 0.517 µM [activator, partial curve, poor fit] | –
CN(CC(=O)NC1CCN(Cc2ccccc2)CC1)S(=O)(=O)c1ccc(Br)s1 | inconclusive: 12.6 µM [inhibitor, partial curve, poor fit] | –
Cc1cnc(C(=O)Nc2ccccc2C(=O)N2CCOCC2)cn1 | inactive | –
O=Cc1c(Sc2ccccc2)nc2ccccn2c1=O | inconclusive: 35.5 µM [inhibitor, single point] | –
CCCc1cc(N2CCN(c3cccc(C)c3C)CC2)n2cnnc2n1 | inactive | –
CCn1nc(C)c(/C=N/NC(=S)Nc2ccc(Cl)cc2Cl)c1C | inactive | –
O=C(c1ccc(C(F)(F)F)cc1)C1CCCN(Cc2ccncc2)C1 (centres undefined) | inactive | –
O=C(N/C=C\n1cnc2cc(C(F)(F)F)ccc21)c1ccc([N+](=O)[O-])cc1 | inconclusive: 7.08 µM [inhibitor, partial curve, poor fit] | –
CC1CCCN(C(=S)Nc2ccc(S(=O)(=O)N3CCCCC3)cc2)C1 (centres undefined) | inactive | –
COc1ccc(C2CC(c3ccc(Br)cc3)=NN2C(=S)Nc2ccccc2)cc1 (centres undefined) | inactive | –
CSCCC(NC(=O)c1ccccc1)C(=O)N1CCN(Cc2ccc(Cl)cc2)CC1 (centres undefined) | active: 11.2 µM | –
CN(C(=O)CSc1cc(C(=O)c2nccn2C)c2ccccc2n1)c1ccccc1 | inconclusive: 18.3 µM [inhibitor, single point] | –
COc1ccc(F)cc1CN1CCN(c2ncnc3scc(-c4ccccc4)c23)CC1 | inconclusive: 10 µM [inhibitor, partial curve, poor fit] | –
